Test results from PubChem BioAssay AID2551 (National Center for Advancing Translational Sciences (NCATS), 2010).
Screen size: about 310,000 compounds; about 17,000 (5.5%) were called active. Inconclusive means that the source gave no clear call. Such entries were picked first, then a sample of the others. Calls follow the shape of the dose curve; as a rule, active = well fitted inhibition curve with a large enough effect; inconclusive = small, poorly fitted or top-dose-only effect, or effect the other way; inactive = no such curve, though single readings can be large or run the other way. Potencies beside an inconclusive call are fits to weak or partial responses and may not hold up.

Sequences of proteins named here, by UniProt entry; tags and fusion partners are left off. A change or cut given only in a name is not applied to a line headed by its entry.
UniProt P51450: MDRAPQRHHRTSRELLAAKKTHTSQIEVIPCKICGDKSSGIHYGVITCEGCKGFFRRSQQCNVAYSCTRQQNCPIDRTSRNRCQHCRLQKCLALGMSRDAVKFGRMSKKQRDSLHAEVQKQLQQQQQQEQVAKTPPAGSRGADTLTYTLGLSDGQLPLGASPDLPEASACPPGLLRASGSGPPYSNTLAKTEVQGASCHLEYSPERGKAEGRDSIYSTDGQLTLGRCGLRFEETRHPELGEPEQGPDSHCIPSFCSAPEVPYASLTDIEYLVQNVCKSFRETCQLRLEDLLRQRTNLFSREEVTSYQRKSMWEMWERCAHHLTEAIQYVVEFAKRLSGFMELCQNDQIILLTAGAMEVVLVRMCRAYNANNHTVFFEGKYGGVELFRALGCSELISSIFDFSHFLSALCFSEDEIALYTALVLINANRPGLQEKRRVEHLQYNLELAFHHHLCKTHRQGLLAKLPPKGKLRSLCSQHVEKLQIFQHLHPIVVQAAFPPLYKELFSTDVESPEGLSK

biological target: Nuclear receptor ROR-gamma (Mus musculus) (UniProt P51450); assay: qHTS for inhibitors of ROR gamma transcriptional activity; details: Drosophila S2 Gal4-RORgamma UAS-luciferase reporter, 20 h; activity change, negative = inhibition: at 53.6 µM (top of the series); also: nearly all actives have a fitted effect of over 60% in size
Outline: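 Read-out: Photinus luciferase luminescence; inhibitors lower reporter signal. Insect Schneider cells with Gal4-ROR gamma fusion under metallothionein promoter, UAS reporter; 700 uM final copper sulfate induction, 20 hr, ambient temperature.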
% is scaled to controls: 0 for no effect and ±100 for the full control effect; potency is read from the fitted curve at half-maximal effect.

Potency, inactive:
CN(C)c1ccc(C(=S)N2CCOCC2)cc1
NC(Cc1ccc(OC(F)F)cc1)C(=O)O (configuration not stated)
O=C(NCCc1ccccc1)C1CCN(c2ncccn2)CC1
O=C1c2cccc([N+](=O)[O-])c2C(=O)N1CCO
COCCn1c(SCC(=O)NC(C)c2ccc(F)cc2)nc2ccccc21 (configuration not stated)
CCC1Sc2ccc(S(=O)(=O)CCC(=O)NCc3cccs3)cc2NC1=O (configuration not stated)
COc1ccccc1NC(=S)NNC(=O)c1ccncc1
CC(=O)C1=C(C)Nc2ncnn2C1c1ccccc1F (configuration not stated)
Cc1ccc(SC2=C(Sc3ccc(C)cc3)C(=O)c3ccccc3C2=O)cc1
CC(=O)Nc1ccc(N2C(=O)c3cccc4c(O)ccc(c34)C2=O)cc1
O=C(Nc1ccc(F)cc1)Nc1csc2ccccc12
C/C(=N\NC(=O)c1ccccc1)c1ccc2c(c1)OCO2
CN(C)S(=O)(=O)c1ccc(Cl)c(C(=O)NCCNC(=O)c2cc(S(=O)(=O)N(C)C)ccc2Cl)c1
FC(F)(F)c1ccc(/C=N/n2c(C3CCCCC3)n[nH]c2=S)cc1
Cc1cccc(NC(=O)CSc2ncnc3sc(C)cc23)c1
COC(=O)[C@H]1C[C@@H]1[C@H](NS(=O)(=O)c1ccc(-c2ccccc2)cc1)c1ccccc1
CC(C)(C)NS(=O)(=O)c1ccc(OCC(=O)NCc2ccco2)cc1
CCOC(=O)c1csc(NC(=O)CCSc2ccccc2)n1

Two records drawn at random from those above, as already listed:
Potency, inactive:
C/C(=N\NC(=O)c1ccccc1)c1ccc2c(c1)OCO2
O=C(Nc1ccc(F)cc1)Nc1csc2ccccc12

Following part:

Potency, inconclusive:
Clc1ccccc1-c1nnc2sc(C3COc4ccccc4O3)nn12 (configuration not stated) 35.5 µM [inhibitor, single point]
Fc1ccc(C2CC(c3ccco3)=Nc3ccccc3S2)cc1 (configuration not stated) 11.2 µM [inhibitor, single point]
CC(=O)c1ccc(N2CCC(C)CC2)c(F)c1 12.6 µM [activator, partial curve]
COC(=O)c1nc(NC2=NCCCCC2)n[nH]1 28.2 µM [inhibitor, single point]
Cc1c(NC(=O)CN2c3cccc4cccc(c34)S2(=O)=O)c(=O)n(-c2ccccc2)n1C 5.01 µM [activator, partial curve]
O=C(CN1CCCc2ccccc21)N1CCc2ccccc21 17.8 µM [activator, single point]
Cc1ccc(P(=O)(CO)c2ccc(C)cc2)cc1 35.5 µM [activator, single point]
CC(C)(C)c1ccc(C(=O)Nc2ccc(C(=O)NCc3cccnc3)cc2)cc1 5.62 µM [inhibitor, partial curve]
CC(C)c1ccc(NC(=O)/C(C#N)=C/c2ccncc2)cc1 25.1 µM [inhibitor, single point]
COc1ccc(/C=C/C(=O)Nc2cccc(S(=O)(=O)N3CCCC3)c2)cc1OC 17.8 µM [activator, single point]
CSC1=NCCN1C(=O)c1c(F)cccc1F 31.6 µM [activator, single point]
O=C(c1cnn2c(C(F)(F)F)cc(-c3cccs3)nc12)N1CCN(Cc2ccccc2)CC1 11.2 µM [activator, partial curve, poor fit]
CCCCOC(=O)c1ccc(N/C(=N\S(=O)(=O)c2ccccc2)c2ccccc2)cc1 10 µM [activator, partial curve]
CC(C)Cc1cc(C(=O)N2CCCC(CO)(Cc3ccc(F)cc3F)C2)n[nH]1 (configuration not stated) 22.4 µM [activator, single point]
CC1CN(CCC(=O)Nc2ccc3c(c2)CCC3)CC(C)O1 (configuration not stated) 22.4 µM [inhibitor, single point]
COC(=O)c1nc2ccc(N3CCOCC3)cc2c(C)c1C(=O)OC 35.5 µM [inhibitor, single point]
O=C(NCc1ccc2[nH]c3c(c2c1)CCCC3)c1ccc(S(=O)(=O)N2CCOCC2)cc1 25.1 µM [activator, partial curve, poor fit]
COc1cc([N+](=O)[O-])ccc1N 10 µM [inhibitor, single point]
O=C(Nc1ccc(-c2cn3ccsc3n2)cc1)C1CC1 35.5 µM [inhibitor, single point]
Cc1ccc(C(=O)N[C@H](C(=O)OCc2cc(=O)n3c(n2)sc2ccccc23)C(C)C)cc1 15.8 µM [activator, partial curve]
CC(=O)c1c(O)cccc1O 15.8 µM [activator, partial curve]
COc1ccc(-n2nc(C(=O)NCC(=O)Nc3ccccn3)c3ccccc3c2=O)cc1Cl 12.6 µM [inhibitor, single point]
COc1ccc(-n2c(=O)c(-c3ccc(Cl)cc3)nc3cnc(N4CCNCC4)nc32)cc1 25.1 µM [inhibitor, single point]
COc1ccccc1N1CCN(C(=O)c2ccc3c(c2)CCN3S(=O)(=O)c2ccccc2)CC1 22.4 µM [activator, single point]
O=C(CN(C1CC1)S(=O)(=O)c1ccc(S(=O)(=O)NC2CCCCC2)cc1)Nc1ccccc1 35.5 µM [activator, single point]
CC1CCCN(c2nc(-c3cccnc3)nc3scc(-c4ccccc4)c23)C1 (configuration not stated) 22.4 µM [inhibitor, single point]
Cc1noc(C(=O)Nc2cc(Cl)ccc2O)c1Cl 15.8 µM [activator, single point]
Cc1noc(C)c1COC(=O)c1ccc(-c2nc3ccccc3s2)s1 1.58 µM [inhibitor, full curve, poor fit]
COc1cc(C2CC(=O)Oc3cc(C)c(Cl)cc32)cc(OC)c1OC (configuration not stated) 28.2 µM [activator, single point]
Cc1nnc(C)n1/N=C/c1cc(Br)cc(Br)c1O 35.5 µM [inhibitor, single point]
CC(Oc1ccc2c3c(c(=O)oc2c1)CCCC3)C(=O)NCc1ccncc1 (configuration not stated) 11.2 µM [activator, partial curve, poor fit]
CC(C)N=C1NN=C(c2cccs2)C(CC(=O)O)S1 (configuration not stated) 0.178 µM [inhibitor, full curve, poor fit]
COc1ccc(C2=Nn3c(nnc3-c3ccc(OC)cc3)SC2)cc1 20 µM [activator, single point]
Cc1nnc(SC/C=C/c2ccccc2)n(N)c1=O 6.31 µM [activator, single point]
CC#CCN(Cc1ccco1)C(=O)C1CCC(=O)N(Cc2ccccc2F)C1 (configuration not stated) 17.8 µM [activator, partial curve]
Cc1ccc(CNCc2cc3c(C(C)(C)C)nn(-c4ccccc4)c3[nH]c2=O)cc1 5.62 µM [inhibitor, single point]
O=C(c1ccc(CS(=O)(=O)c2ccc(Br)cc2)o1)N1CCCCCC1 12.6 µM [inhibitor, partial curve, poor fit]
Cc1ccc(NC(=O)CSc2nc(-c3ccco3)cc(C(F)(F)F)n2)cc1C 14.1 µM [activator, single point]
CCCOC1CCCN(C(=O)c2cc(COc3ccc(-n4cncn4)cc3)on2)C1 (configuration not stated) 8.91 µM [activator, partial curve]
Cc1nn(C)cc1/C=C/C(=O)c1ccc(O)cc1 3.55 µM [inhibitor, partial curve]
COc1ccc(S(=O)(=O)N2CCN(C(=O)c3cc(-c4ccc(C)cc4)n[nH]3)CC2)cc1 35.5 µM [activator, single point]
COc1ccc(NC(=O)c2cccc(N3C(=O)C4C5C=CC(C6CC56)C4C3=O)c2)cc1 (configuration not stated) 35.5 µM [activator, single point]
COc1cc(NC(=O)C/C(C)=N/NC(=O)C(OC)c2ccccc2)c(OC)cc1Cl (configuration not stated) 15.8 µM [inhibitor, single point]
CC(C)c1ccc(NC(=O)CCNS(=O)(=O)c2cccc3nsnc23)cc1 25.1 µM [activator, single point]

Some of these compounds in order of formula weight, rising.
Potency, inconclusive:
CC(C)c1ccc(NC(=O)/C(C#N)=C/c2ccncc2)cc1 25.1 µM [inhibitor, single point]
CC(C)c1ccc(NC(=O)CCNS(=O)(=O)c2cccc3nsnc23)cc1 25.1 µM [activator, single point]
COc1ccc(-n2nc(C(=O)NCC(=O)Nc3ccccn3)c3ccccc3c2=O)cc1Cl 12.6 µM [inhibitor, single point]

Next part.

Potency, active:
CN(C)c1ccc(/C=N/n2ncc3ccccc32)cc1 0.708 µM
CCCCC(=O)NC(c1ccc(N(C)C)cc1)c1ccc2cccnc2c1O (configuration not stated) 5.01 µM
CC(C)(C)NC(=S)NCc1ccc2c(c1)OCO2 11.2 µM
COc1cc(N2Cc3ccccc3C2)ccc1C=O 0.355 µM
O=C(CCCCCNc1nc(=S)[nH]c2ccccc12)NCc1ccccc1Cl 17.8 µM
CCCCn1c(SCC(=O)NCC2CCCO2)nc2ccc(N3CCOCC3)cc2c1=O (configuration not stated) 2.51 µM
C=CCn1c(-c2cccc([N+](=O)[O-])c2)n[nH]c1=S 2.24 µM
CCN(CC)CC(=O)Nc1sc2c(c1C(=O)c1ccccc1OC)CCC2 3.98 µM
CC(C)(C)c1ccc(C(=O)NC(=S)NCc2ccco2)cc1 6.31 µM

Activity change, negative = inhibition, inactive:
Cc1cccc(C(=O)Nc2ccc(C(=O)/C=C/c3cccnc3)cc2)c1 27.7% [at 10 µM]
